From the supplement of paper PMC10849652
The other results are listed elsewhere or left out.

Chains of the proteins cited; added tags and fusions are not shown. Lines headed by an entry give the natural chain unless they say otherwise; changes in a name come on top.
UniProt Q06547, whole entry, looked up: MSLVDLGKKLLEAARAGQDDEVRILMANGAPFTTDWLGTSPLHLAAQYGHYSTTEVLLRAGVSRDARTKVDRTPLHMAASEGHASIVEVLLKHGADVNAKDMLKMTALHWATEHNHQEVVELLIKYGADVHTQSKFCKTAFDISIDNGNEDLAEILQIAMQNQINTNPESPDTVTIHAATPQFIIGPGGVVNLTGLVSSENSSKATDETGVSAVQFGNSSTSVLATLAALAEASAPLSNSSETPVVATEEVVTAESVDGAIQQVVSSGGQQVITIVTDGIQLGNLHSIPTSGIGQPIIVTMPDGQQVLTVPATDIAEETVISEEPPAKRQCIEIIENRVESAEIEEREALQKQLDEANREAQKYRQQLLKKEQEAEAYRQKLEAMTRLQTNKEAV
UniProt Q9UJY4: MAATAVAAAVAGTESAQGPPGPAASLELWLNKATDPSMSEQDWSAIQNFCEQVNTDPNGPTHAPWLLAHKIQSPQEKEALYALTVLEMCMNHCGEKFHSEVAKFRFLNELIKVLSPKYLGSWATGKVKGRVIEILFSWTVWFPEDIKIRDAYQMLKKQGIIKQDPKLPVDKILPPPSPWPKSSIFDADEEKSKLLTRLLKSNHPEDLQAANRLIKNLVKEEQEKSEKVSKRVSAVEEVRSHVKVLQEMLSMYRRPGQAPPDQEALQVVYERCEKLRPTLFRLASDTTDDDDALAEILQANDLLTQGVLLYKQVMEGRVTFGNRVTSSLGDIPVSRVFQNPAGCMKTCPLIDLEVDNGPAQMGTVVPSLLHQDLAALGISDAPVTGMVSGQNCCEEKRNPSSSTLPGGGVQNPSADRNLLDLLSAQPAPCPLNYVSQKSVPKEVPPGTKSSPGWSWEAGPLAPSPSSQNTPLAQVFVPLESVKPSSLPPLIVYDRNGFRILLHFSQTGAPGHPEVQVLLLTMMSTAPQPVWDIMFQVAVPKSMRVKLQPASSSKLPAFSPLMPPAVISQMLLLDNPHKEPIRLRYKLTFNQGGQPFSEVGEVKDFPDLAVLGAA
UniProt Q10471: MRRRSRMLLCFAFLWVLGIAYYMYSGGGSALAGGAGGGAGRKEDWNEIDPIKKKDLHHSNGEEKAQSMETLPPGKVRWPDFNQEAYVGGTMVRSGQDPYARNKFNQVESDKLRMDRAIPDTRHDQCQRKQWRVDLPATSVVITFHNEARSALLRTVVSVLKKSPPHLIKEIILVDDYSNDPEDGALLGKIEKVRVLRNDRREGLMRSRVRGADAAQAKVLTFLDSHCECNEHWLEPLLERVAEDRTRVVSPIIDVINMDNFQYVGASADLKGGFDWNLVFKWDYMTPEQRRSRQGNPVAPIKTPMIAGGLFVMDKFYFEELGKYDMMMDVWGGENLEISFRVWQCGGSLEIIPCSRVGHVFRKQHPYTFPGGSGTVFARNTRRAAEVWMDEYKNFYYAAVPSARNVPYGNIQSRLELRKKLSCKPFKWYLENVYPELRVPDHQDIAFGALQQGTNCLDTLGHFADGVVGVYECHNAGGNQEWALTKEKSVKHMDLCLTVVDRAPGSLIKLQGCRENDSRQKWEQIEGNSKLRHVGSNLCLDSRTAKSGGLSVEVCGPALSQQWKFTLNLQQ
UniProt Q04446: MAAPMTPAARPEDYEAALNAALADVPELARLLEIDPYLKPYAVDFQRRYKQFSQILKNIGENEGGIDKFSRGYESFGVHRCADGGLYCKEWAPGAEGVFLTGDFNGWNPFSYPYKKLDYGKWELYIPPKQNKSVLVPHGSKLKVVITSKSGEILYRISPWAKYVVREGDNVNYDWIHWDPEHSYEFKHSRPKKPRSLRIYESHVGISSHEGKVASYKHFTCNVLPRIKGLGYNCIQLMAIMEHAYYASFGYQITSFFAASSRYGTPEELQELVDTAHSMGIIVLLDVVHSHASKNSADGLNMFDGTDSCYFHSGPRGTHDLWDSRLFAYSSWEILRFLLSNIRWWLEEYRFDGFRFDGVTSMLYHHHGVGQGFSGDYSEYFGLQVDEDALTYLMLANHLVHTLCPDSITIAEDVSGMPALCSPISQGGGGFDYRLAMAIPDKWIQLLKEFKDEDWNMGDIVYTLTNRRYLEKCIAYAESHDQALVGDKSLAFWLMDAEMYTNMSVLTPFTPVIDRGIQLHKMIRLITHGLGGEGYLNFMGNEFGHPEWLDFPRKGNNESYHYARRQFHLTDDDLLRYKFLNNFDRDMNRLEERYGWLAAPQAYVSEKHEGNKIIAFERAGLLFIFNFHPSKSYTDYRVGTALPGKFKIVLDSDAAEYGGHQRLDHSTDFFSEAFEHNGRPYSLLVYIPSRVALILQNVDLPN
UniProt Q9H0R8, whole entry, looked up: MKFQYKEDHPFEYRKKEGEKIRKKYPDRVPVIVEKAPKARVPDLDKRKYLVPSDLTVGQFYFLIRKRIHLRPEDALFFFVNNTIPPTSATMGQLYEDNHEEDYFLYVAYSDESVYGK
UniProt Q9H2C0: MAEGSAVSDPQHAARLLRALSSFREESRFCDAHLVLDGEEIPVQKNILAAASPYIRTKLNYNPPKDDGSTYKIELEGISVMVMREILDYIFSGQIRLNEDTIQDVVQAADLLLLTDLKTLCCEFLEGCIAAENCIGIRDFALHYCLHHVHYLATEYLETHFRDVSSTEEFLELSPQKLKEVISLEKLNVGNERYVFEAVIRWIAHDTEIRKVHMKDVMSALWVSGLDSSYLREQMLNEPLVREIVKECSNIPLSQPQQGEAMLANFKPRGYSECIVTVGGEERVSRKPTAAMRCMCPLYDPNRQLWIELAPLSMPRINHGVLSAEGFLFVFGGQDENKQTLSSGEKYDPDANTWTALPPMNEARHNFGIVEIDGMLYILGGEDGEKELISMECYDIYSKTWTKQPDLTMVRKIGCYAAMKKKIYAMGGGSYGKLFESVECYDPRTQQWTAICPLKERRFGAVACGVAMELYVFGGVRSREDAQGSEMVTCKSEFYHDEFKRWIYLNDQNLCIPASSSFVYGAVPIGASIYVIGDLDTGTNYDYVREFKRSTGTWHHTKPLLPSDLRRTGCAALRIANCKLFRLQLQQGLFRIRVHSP
UniProt Q86SF2: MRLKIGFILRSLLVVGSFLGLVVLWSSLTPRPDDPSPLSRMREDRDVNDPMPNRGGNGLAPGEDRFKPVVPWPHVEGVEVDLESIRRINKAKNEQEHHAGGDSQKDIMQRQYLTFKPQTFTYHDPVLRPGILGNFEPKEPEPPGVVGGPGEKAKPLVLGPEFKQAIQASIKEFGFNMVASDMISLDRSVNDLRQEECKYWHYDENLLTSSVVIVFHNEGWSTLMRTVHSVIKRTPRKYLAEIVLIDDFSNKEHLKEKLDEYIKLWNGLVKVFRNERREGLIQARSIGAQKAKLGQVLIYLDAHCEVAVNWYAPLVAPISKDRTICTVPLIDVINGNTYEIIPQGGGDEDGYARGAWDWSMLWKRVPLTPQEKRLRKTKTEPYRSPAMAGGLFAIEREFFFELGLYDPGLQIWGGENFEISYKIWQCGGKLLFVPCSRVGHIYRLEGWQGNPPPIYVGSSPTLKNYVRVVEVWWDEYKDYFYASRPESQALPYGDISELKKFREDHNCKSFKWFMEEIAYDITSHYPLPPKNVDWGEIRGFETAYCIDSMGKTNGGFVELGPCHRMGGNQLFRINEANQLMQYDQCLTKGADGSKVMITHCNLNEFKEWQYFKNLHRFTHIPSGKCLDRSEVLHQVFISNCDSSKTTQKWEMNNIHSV
UniProt P30047: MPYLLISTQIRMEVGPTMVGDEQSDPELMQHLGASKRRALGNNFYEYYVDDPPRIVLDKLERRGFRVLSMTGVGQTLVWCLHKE
UniProt P55789: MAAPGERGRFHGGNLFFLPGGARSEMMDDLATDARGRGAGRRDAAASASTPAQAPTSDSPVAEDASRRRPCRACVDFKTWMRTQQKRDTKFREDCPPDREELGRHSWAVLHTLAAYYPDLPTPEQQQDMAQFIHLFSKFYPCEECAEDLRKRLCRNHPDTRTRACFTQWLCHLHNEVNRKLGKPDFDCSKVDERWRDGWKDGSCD
UniProt Q9NY12: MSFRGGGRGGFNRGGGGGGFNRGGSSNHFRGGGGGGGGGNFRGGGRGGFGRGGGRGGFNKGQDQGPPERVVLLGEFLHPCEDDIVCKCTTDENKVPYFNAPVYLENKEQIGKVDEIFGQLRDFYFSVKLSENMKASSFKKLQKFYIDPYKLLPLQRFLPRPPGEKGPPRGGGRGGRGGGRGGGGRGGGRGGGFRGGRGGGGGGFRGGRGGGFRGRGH
UniProt P11413, whole entry, looked up: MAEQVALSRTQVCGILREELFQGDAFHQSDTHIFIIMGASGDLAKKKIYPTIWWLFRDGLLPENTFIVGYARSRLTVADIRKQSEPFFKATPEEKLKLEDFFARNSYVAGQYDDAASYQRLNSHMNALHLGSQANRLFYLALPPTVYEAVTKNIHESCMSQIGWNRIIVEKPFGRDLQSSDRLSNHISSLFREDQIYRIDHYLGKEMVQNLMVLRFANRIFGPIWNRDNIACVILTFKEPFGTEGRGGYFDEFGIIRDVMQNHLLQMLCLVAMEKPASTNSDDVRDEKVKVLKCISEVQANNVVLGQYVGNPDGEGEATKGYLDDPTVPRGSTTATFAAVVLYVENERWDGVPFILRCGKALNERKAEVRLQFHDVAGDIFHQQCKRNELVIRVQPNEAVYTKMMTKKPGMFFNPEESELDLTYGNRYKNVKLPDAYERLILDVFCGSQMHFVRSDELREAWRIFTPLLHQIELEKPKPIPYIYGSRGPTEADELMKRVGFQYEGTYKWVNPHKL
UniProt Q6NT46: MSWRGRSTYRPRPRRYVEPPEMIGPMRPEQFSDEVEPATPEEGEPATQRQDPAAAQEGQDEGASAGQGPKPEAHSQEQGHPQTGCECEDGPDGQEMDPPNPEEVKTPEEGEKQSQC
UniProt Q06210: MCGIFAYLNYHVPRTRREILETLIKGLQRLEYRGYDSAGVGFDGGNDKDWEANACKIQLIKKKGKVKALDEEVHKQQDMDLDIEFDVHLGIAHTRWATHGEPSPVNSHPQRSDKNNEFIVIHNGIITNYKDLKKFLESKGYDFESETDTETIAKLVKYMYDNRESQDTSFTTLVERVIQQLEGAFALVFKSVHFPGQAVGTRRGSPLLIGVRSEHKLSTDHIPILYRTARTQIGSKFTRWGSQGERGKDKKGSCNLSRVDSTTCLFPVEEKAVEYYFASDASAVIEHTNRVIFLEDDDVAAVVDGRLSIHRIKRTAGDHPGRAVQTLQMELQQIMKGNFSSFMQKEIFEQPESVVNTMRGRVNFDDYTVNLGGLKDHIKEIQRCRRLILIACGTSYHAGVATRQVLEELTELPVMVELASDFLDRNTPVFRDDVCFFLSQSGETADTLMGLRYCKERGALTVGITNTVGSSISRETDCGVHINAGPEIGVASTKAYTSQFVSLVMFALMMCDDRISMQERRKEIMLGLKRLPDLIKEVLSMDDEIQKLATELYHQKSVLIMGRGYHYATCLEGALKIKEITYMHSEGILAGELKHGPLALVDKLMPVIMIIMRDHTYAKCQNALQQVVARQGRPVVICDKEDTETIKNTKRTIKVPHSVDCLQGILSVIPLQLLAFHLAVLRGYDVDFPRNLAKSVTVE
UniProt P50395: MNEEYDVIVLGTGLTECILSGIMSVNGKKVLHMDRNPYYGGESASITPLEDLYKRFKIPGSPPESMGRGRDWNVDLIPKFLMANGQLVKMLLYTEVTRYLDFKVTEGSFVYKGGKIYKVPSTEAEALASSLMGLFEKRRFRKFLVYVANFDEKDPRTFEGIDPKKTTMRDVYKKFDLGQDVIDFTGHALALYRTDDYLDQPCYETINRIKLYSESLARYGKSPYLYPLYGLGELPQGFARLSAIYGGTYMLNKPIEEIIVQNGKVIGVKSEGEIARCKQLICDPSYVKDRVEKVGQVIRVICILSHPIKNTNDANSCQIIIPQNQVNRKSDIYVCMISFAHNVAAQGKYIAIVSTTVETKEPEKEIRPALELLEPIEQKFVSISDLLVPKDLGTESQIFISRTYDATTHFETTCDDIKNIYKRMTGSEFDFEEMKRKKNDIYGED
UniProt P51570: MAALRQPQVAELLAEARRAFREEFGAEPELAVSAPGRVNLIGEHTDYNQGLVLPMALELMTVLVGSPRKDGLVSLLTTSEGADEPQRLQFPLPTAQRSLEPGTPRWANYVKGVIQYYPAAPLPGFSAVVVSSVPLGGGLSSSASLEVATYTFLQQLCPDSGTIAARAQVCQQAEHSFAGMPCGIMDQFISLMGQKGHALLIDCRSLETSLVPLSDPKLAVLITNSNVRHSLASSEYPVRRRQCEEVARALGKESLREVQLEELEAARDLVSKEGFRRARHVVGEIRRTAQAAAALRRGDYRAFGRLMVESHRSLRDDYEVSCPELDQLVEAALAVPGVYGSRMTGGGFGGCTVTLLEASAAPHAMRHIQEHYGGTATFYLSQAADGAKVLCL

Key:
Experiment in all cases: log2 fold change, soluble protein after heating vs DMSO (PISA); higher = thermal stabilisation; K562 lysate, 10 uM; active = over 0.2 and 3.5 SD of the protein, either way, in both replicates (recomputed)
vemurafenib = compound: CCCS(=O)(=O)Nc1ccc(F)c(C(=O)c2c[nH]c3ncc(-c4ccc(Cl)cc4)cc23)c1F [vemurafenib]
In short: (§1)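 Quantification was by TMTpro 16plex LC-MS/MS with equalised channel sums, applied to the supernatant after 21,000xg for 90 min. Samples were crude K562 extract at 1 mg/mL protein in PBS pH 7.4 with 1 mM MgCl2, treated with 10 μM compound for 30 min, heated for 3 min across 48°C-58°C, pooled and brought to 0.5% NP-40 at 4°C. Values are log-two fold changes in thermal stability relative to solvent controls, from duplicates.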

[1] = compound: CCCS(=O)(=O)Nc1ccc(F)c(C(=O)c2c[nH]c3ncc(Cl)cc23)c1F
In short: as §1

barasertib = compound: CCN(CCCOc1ccc2c(Nc3cc(CC(=O)Nc4cccc(F)c4)[nH]n3)ncnc2c1)CCOP(=O)(O)O [barasertib]
In short: as §1

[2] = compound: CC[C@@H]1C(=O)N(C)c2cnc(Nc3ccc(C(=O)NC4CCN(C)CC4)cc3OC)nc2N1C1CCCC1
In short: as §1

volasertib = compound: CC[C@@H]1C(=O)N(C)c2cnc(Nc3ccc(C(=O)N[C@H]4CC[C@H](N5CCN(CC6CC6)CC5)CC4)cc3OC)nc2N1C(C)C [volasertib]
In short: as §1

[3] = compound: CCn1c(C(=O)N(C2CC2)C2CC2)cc2c3c(ncn3C)c(Nc3cc(C)n(C)n3)nc21
In short: as §1

[4] = compound: CCn1cc(-c2ccnc3[nH]c(-c4cccc(CN(C)C)c4)cc23)c(-c2ccc(NC(=O)N(C)C)cc2)n1
In short: as §1

[5] = compound: CN1CCC(CNc2ccc3ncc(-c4cccc(OC(F)(F)F)c4)n3n2)CC1
In short: as §1

saracatinib = compound: CN1CCN(CCOc2cc(OC3CCOCC3)c3c(Nc4c(Cl)ccc5c4OCO5)ncnc3c2)CC1 [saracatinib]
In short: as §1

sotrastaurin = compound: CN1CCN(c2nc(C3=C(c4c[nH]c5ccccc45)C(=O)NC3=O)c3ccccc3n2)CC1 [sotrastaurin]
In short: as §1

Measured: log2 fold change

GABPB1 isoform 3 (UniProt Q06547)
inactive: vemurafenib 0.057 | [1] 0.074 | barasertib 0.141 | [2] -0.048 | volasertib -0.11 | [3] -0.016 | [4] -0.042 | [5] -0.028 | saracatinib -0.006 | sotrastaurin -0.022

GALT (UniProt P07902)
inactive: vemurafenib 0.065 | [1] -0.033 | barasertib 0.023 | [2] 0.026 | volasertib 0.011 | [3] 0.034 | [4] -0.051 | [5] 0.046 | saracatinib 0.028 | sotrastaurin -0.036

FOXJ3 (UniProt Q9UPW0)
inactive: vemurafenib 0.111 | [1] 0.124 | barasertib 0.038 | [2] 0.054 | volasertib -0.096 | [3] 0.02 | [4] 0.032 | [5] -0.08 | saracatinib 0.023 | sotrastaurin 0.018

GAPDH (UniProt P04406)
inactive: vemurafenib -0.031 | [1] 0.002 | barasertib -0.016 | [2] -0.006 | volasertib -0.002 | [3] -0.009 | [4] 0.042 | [5] -0.032 | saracatinib 0 | sotrastaurin -0.01

GGA2 (UniProt Q9UJY4)
inactive: vemurafenib -0.003 | [1] 0.011 | barasertib 0.073 | [2] -0.005 | volasertib -0.048 | [3] 0.032 | [4] -0.02 | [5] -0.088 | saracatinib 0.025 | sotrastaurin 0.041

GALNT2 (UniProt Q10471)
inactive: vemurafenib 0.013 | [1] 0.014 | barasertib 0.003 | [2] -0.014 | volasertib 0.002 | [3] 0.042 | [4] 0.065 | [5] 0.035 | saracatinib -0.004 | sotrastaurin 0.016

GBE1 (UniProt Q04446)
inactive: vemurafenib 0.024 | [1] 0.006 | barasertib 0.08 | [2] 0.019 | volasertib -0.109 | [3] 0 | [4] 0.006 | [5] -0.057 | saracatinib 0.007 | sotrastaurin 0.001

FRG1 (UniProt Q14331)
inactive: vemurafenib 0.01 | [1] 0.02 | barasertib -0.041 | [2] 0.015 | volasertib -0.014 | [3] 0.013 | [4] 0.034 | [5] 0.043 | saracatinib 0.032 | sotrastaurin 0.003

FXR2 (UniProt P51116)
inactive: vemurafenib 0 | [1] 0.041 | barasertib -0.003 | [2] -0.021 | volasertib -0.028 | [3] 0.028 | [4] 0.007 | [5] -0.076 | saracatinib 0.034 | sotrastaurin -0.009

GCAT isoform 2 (UniProt O75600)
inactive: vemurafenib -0.005 | [1] -0.027 | barasertib 0.063 | [2] -0.019 | volasertib 0.03 | [3] -0.032 | [4] 0.039 | [5] 0.014 | saracatinib 0 | sotrastaurin 0.019

FUBP1 isoform 2 (UniProt Q96AE4)
inactive: vemurafenib -0.018 | [1] 0 | barasertib -0.016 | [2] 0.032 | volasertib 0.017 | [3] 0.014 | [4] 0.099 | [5] 0.047 | saracatinib -0.021 | sotrastaurin -0.035

FUBP3 (UniProt Q96I24)
inactive: vemurafenib -0.007 | [1] 0.019 | barasertib 0.048 | [2] 0.046 | volasertib -0.032 | [3] 0.042 | [4] 0.028 | [5] -0.012 | saracatinib 0.03 | sotrastaurin -0.077

GABARAPL1 isoform 2 (UniProt Q9H0R8)
inactive: vemurafenib 0.053 | [1] 0.012 | barasertib -0.125 | [2] -0.004 | volasertib 0.002 | [3] 0.006 | [4] 0.094 | [5] 0.029 | saracatinib 0 | sotrastaurin -0.048

GDAP2 (UniProt Q9NXN4)
inactive: vemurafenib -0.015 | [1] 0 | barasertib 0.103 | [2] -0.032 | volasertib -0.047 | [3] 0.001 | [4] -0.006 | [5] -0.013 | saracatinib -0.011 | sotrastaurin 0.043

GAN (UniProt Q9H2C0)
inactive: vemurafenib 0.025 | [1] -0.005 | barasertib 0.004 | [2] 0.024 | volasertib -0.004 | [3] -0.024 | [4] -0.081 | [5] 0.062 | saracatinib 0.016 | sotrastaurin 0.026

GALNT7 (UniProt Q86SF2)
inactive: vemurafenib 0.057 | [1] 0.001 | barasertib -0.003 | [2] 0.002 | volasertib 0 | [3] -0.05 | [4] 0.181 | [5] -0.057 | saracatinib -0.006 | sotrastaurin 0.023

GCHFR (UniProt P30047)
inactive: vemurafenib 0.059 | [1] 0.019 | barasertib 0.002 | [2] 0.04 | volasertib -0.001 | [3] -0.004 | [4] -0.101 | [5] 0.133 | saracatinib 0.018 | sotrastaurin -0.155

GFER (UniProt P55789)
inactive: vemurafenib 0 | [1] 0.022 | barasertib 0.048 | [2] 0.111 | volasertib -0.048 | [3] 0.016 | [4] 0.059 | [5] 0 | saracatinib 0.106 | sotrastaurin 0.015

GAR1 (UniProt Q9NY12)
inactive: vemurafenib 0.009 | [1] -0.003 | barasertib 0.105 | [2] 0.023 | volasertib 0.003 | [3] -0.001 | [4] 0.111 | [5] -0.09 | saracatinib 0.004 | sotrastaurin 0.013

G6PD isoform 2 (UniProt P11413)
inactive: vemurafenib 0.003 | [1] 0.008 | barasertib -0.029 | [2] -0.02 | volasertib -0.061 | [3] 0.016 | [4] 0.063 | [5] -0.04 | saracatinib 0.032 | sotrastaurin -0.017

FSCN1 (UniProt Q16658)
inactive: vemurafenib -0.047 | [1] -0.006 | barasertib -0.043 | [2] -0.048 | volasertib 0.009 | [3] 0.005 | [4] 0.093 | [5] -0.028 | saracatinib -0.016 | sotrastaurin -0.034

GABPB1 (UniProt Q06547)
inactive: vemurafenib -0.05 | [1] 0.01 | barasertib 0.014 | [2] -0.024 | volasertib 0.025 | [3] 0.006 | [4] 0.193 | [5] -0.199 | saracatinib 0.057 | sotrastaurin 0.023

GDAP1 (UniProt Q8TB36)
inactive: vemurafenib 0.129 | [1] 0.02 | barasertib -0.057 | [2] 0.144 | volasertib 0.003 | [3] 0.112 | [4] 0.111 | [5] -0.06 | saracatinib -0.018 | sotrastaurin 0.049

FRYL (UniProt O94915)
inactive: vemurafenib -0.002 | [1] 0.015 | barasertib 0.054 | [2] -0.01 | volasertib -0.078 | [3] 0.022 | [4] -0.058 | [5] 0.016 | saracatinib 0.014 | sotrastaurin 0.024

GAGE2A (UniProt Q6NT46)
inactive: vemurafenib 0.05 | [1] -0.039 | barasertib 0.26 | [2] 0.051 | volasertib 0.082 | [3] -0.014 | [4] 0.003 | [5] -0.028 | saracatinib 0.002 | sotrastaurin 0.037

GFPT1 (UniProt Q06210)
inactive: vemurafenib 0.014 | [1] 0.02 | barasertib 0.009 | [2] -0.026 | volasertib -0.036 | [3] 0.007 | [4] 0.009 | [5] -0.042 | saracatinib 0.009 | sotrastaurin -0.014

GDI2 (UniProt P50395)
inactive: vemurafenib -0.016 | [1] 0.018 | barasertib -0.022 | [2] -0.001 | volasertib -0.004 | [3] -0.017 | [4] 0.193 | [5] -0.049 | saracatinib -0.017 | sotrastaurin -0.004

GCC1 (UniProt Q96CN9)
inactive: vemurafenib 0.044 | [1] 0.003 | barasertib 0.057 | [2] 0.078 | volasertib -0.007 | [3] 0.002 | [4] 0.133 | [5] -0.07 | saracatinib 0.017 | sotrastaurin 0.051

GCSH (UniProt P23434)
inactive: vemurafenib -0.021 | [1] 0.123 | barasertib 0.043 | [2] 0.071 | volasertib 0.046 | [3] -0.02 | [4] -0.002 | [5] -0.009 | saracatinib -0.028 | sotrastaurin 0.006

GALK1 isoform 2 (UniProt P51570)
inactive: vemurafenib 0.024 | [1] 0.01 | barasertib 0.031 | [2] 0.003 | volasertib -0.054 | [3] -0.009 | [4] 0.085 | [5] -0.055 | saracatinib -0.011 | sotrastaurin 0.031

Reprinted at random: two records from the list.
GDI2 (UniProt P50395)
inactive: vemurafenib -0.016 | [1] 0.018 | barasertib -0.022 | [2] -0.001 | volasertib -0.004 | [3] -0.017 | [4] 0.193 | [5] -0.049 | saracatinib -0.017 | sotrastaurin -0.004

GALK1 isoform 2 (UniProt P51570)
inactive: vemurafenib 0.024 | [1] 0.01 | barasertib 0.031 | [2] 0.003 | volasertib -0.054 | [3] -0.009 | [4] 0.085 | [5] -0.055 | saracatinib -0.011 | sotrastaurin 0.031
